Measurements reported in patent publication US20140193338A1, “COMPOUNDS FOR USE IN IMAGING, DIAGNOSING AND/OR TREATMENT OF DISEASES OF THE CENTRAL NERVOUS SYSTEM” (PIRAMAL IMAGING SA, priority 2011, published 2014).

System: MAO-B
Assay: PET brain time activity curves (SUV) in cynomolgus monkeys
Assay type: in vivo, cynomolgus monkey
Details: steady state
Method: One monkey weighing 6.3 kg was injected i.v. with 163 MBq [^18F]rasagiline (compound F) under sevofluorane anaesthesia.
Two cynomolgus monkeys weighting 5.25 and 6.2 kg, respectively were investigated. They were injected i.v. under sevofluorane anaesthesia with 168 MBq and 174 MBq [^18F],(^2H2)rasagiline (1), respectively.

[2H]C([2H])(C#C)N[C@H]1c2ccccc2C[C@@H]1[18F] [compound 1, (1S,2S)-2-[^18F]fluoro-N-[(1,1-^2H2)prop-2-yn-1-yl]indan-1-amine]
decrease in signal intensity versus compound F, striatum: 2.9 times | decrease in signal intensity versus compound F, thalamus: 2.7 times
